Reference: US10287320B2, “Anti-lymphoma peptides” (Universitetet i Tromsø—Norges Arktiske Universitet, priority 2014, dated 2019)
At least one peptide structure holds a part that was inferred or is arguable (an end, a ring closure or a residue). Some results were stated once for a whole list of compounds, not compound by compound. Ends that are not written are not given here.

Assays:
[1] = system: caspase 2, -3/7, -6, -8, -9, and -10 in A20 cells; test: Caspase activity screening; format: cell-based, Murine; conditions: 1×IC50, 1 hour treatment
A20 lymphomas = format: in vivo; conditions: intralesional treatment, log-rank test
Method: A20 tumor cells were harvested, washed in RPMI-1640 and inoculated (i.d.) into the left side of the abdomen in BALB/c mice (5×10^6 cells in 50 μl RPMI-1640 per mouse). When the tumor size reached 20 mm^2 the mice were split into three groups and treated; Group1—nine mice with the vehicle (0.9% NaCl in sterile H2O), Group2a—eight mice where the tumors were treated with peptide 6a, and Group 3a—nine mice where the tumors were treated with peptide 11. Intralesional injections were performed once a day for three consecutive days.
Tumor size was measured three times a week using an electronic caliper and expressed as the area of an ellipse [(maximum dimension/2)×(minimum dimension/2)×[…]. Animals were killed when the tumor exceeded 100 mm^2. Animals were killed also if the tumor had not reached that size but presented ulcerations or the animals developed metastasis.
Survival curves were compared by the log-rank test. Groups were compared using one-way ANOVA test with Tukey's multiple comparison. Differences were considered significant when P<0.05.

MRC-5 cells = test: MTT cytotoxicity assay against MRC-5 normal fibroblasts (selectivity, SI-1); format: cell-based, Human
Method: The first screen against A20 and MRC-5 was done manually, while the lymphoma panel screen were done at Marbio (Tromsø) using an automated platform (Biomek NX, Beckman Coulter).
Cells were automatically counted (Z1 Coulter Particle Counter, Beckman Coulter) and the cells seeded out in 96-well plates. The plates were incubated for at least 16 hours before the start of the assay.
The growth media was removed and the cells washed once with 100 μL assay media (RPMI-1640). Cells were then treated with 100 μL peptide solution (concentration varying from 500-10 μg/mL) for 4 hrs. Normal assay media and assay media containing 0.1% Triton were used as negative and positive controls, respectively. After this period 10 μL of a MTT solution (5 mg/mL) was added to each well and the plate incubated for a further 2 hrs. Following this 70 μL of the media was carefully removed and 100 μL acidified isopropanol added. The formed formazan crystals were dissolved by agitating the cells with a micropipette and by shaking (30 mins). The absorbance of the reduced MTT (formazan) was read on Versa Max Microplate Reader (Molecular Devices) at 590 nm. All assays, unless mentioned otherwise, were done in triplicate.
During the initial screening process peptide analogues was tested against normal human fibroblasts (SI-1) and the results used to estimate cytotoxicity towards healthy cells surrounding the tumor.

[2] = Table 3, MRC-5 fibroblasts versus A20 lymphoma

| Substance | activation of initiator/effector caspases [1] | survival compared to the controls (A20 lymphomas) | SI-1 (MRC-5 cells; Table 2, analogues of 6a, MRC-5 fibroblasts versus A20 lymphoma, MTT) | SI-1 (MRC-5 cells; [2]) | SI-1 (MRC-5 cells; Table 1, selectivity, normal human fibroblasts (MRC-5) versus A20 lymphoma, MTT) | SI-1 / selectivity (MRC-5 cells; five most active peptides from the A20 screening, tested against normal human fibroblasts) |
| --- | --- | --- | --- | --- | --- | --- |
| WRRRRRWRRRRW-NH2 [Peptide 11, WRRRRRWRRRRW (SEQ ID NO: 23)] | Neither peptide induced activation of initiator/effector caspases | significantly increased survival | >73 | >73 | – | – |
| WRWRWGGRRRRRRR-NH2 [Peptide 6a, WRWRW-GG-RRRRRRR (SEQ ID NO: 14)] | Neither peptide induced activation of initiator/effector caspases | significantly increased survival | – | 17 | 17 | higher than 10 |
